13 molecules from patent US20130310317A1 (Bristol-Myers Squibb, published 2013) can be followed below.

By UniProt entry, the sequences of proteins in these tests, tags left out. Residues count along the entry.
UniProt P08069, residues 31-932: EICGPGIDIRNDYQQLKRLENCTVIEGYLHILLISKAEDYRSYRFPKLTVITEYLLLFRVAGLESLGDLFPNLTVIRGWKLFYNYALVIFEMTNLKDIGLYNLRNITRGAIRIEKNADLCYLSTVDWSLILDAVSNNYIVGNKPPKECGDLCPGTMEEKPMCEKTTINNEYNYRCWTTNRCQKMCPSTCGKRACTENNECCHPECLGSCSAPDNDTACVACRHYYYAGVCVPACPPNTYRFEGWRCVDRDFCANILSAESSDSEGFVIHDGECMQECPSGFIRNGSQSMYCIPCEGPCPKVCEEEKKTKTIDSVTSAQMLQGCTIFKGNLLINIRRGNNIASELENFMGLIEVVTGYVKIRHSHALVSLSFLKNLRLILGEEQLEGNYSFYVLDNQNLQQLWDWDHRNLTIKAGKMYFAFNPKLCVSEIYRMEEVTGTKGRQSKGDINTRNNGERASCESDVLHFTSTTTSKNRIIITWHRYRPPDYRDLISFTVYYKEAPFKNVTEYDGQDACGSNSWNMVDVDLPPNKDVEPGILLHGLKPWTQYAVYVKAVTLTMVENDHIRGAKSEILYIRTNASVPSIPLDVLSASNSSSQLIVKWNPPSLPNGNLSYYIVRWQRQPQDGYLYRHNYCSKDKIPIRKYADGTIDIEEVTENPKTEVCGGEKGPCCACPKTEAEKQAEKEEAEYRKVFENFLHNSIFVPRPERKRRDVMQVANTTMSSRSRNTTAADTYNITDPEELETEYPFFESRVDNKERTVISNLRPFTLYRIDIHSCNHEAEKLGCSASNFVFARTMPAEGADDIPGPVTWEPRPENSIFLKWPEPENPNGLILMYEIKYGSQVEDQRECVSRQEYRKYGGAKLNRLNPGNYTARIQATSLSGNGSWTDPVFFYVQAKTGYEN

For assay [1], the target named is T1, recombinant human IGF-IR (human, UniProt P08069 31-932).
T1 construct: Bought (R&D Systems); also called insulin-like growth factor-I receptor; IGF-1R
Description: competitive ELISA: plate coated with 30 nM IGF-IR, clone bound first, then 10 nM biotinylated IGF-I as the blocked ligand, streptavidin-HRP/TMB, OD450. On the procedure:
MaxiSorp™ plates (Nunc International, Rochester, N.Y.) were coated with 30 nM IGF-IR in PBS at 4° C. overnight followed by blocking in OptEIA buffer (BD biosciences, San Diego, Calif.) for 3 hours at room temperature. Purified fibronectin-based scaffold proteins in OptEIA buffer were bound to each well for 1 hour at room temperature at concentrations ranging from 50 pM to 1 μM. […] The excess ligand was removed by washing with PBST and bound ligand was detected with streptavidin-HRP (Pierce, Rockford, Ill.) using TMB detection reagents (BD biosciences) according to the manufacturer's instructions
On the technique in general: An ELISA detects its analyte on a solid surface through an enzyme-linked reagent.

The target in assay [2] is T1, recombinant human IGF-IR. Put plainly: direct binding ELISA: plate coated with 10 nM IGF-IR, His-tagged clone detected with His-HRP probe, TMB, OD450. How it is done:
MaxiSorp™ plates (Nunc International, Rochester, N.Y.) were coated with 10 nM IGF-IR in PBS at 4° C. overnight followed by blocking in PBS-casein buffer (Pierce) for 3 hours at room temperature. Purified fibronectin-based scaffold proteins in casein buffer were bound to each well for 1 hour at room temperature at a concentration of 5 nM. The plate was washed with PBST and 100 μl of a 1:4000 dilution of His-HRP probe (Pierce) was added to each well with incubation for 15 min at room temperature. The wells were washed 5 times with PBST and the bound HRP was detected with TMB detection reagents (BD biosciences) according to the manufacturer's instructions.

The target of assay [3] is T1, recombinant human IGF-IR. Put plainly: direct binding ELISA on coated IGF-IR.

These are yes or no findings as the source states them, for the method shown. Some results given as binding are weak or reduced against the parent protein; the word gives no strength.

B1: 354E02 (designed binder)
chain: VSDVPRDLEVVAATPTSLLISWGSHLRVSRYYRITYGETGGNSPVQEFTVPYDSHTATISGLKPGVDYTITVYAVTQGPNRGRNYQPISINYRTHHHHHH
In the case of B1, in assay [1], the binding entry is “binds”.

B2: 353F10 (designed binder)
chain: VSDVPRDLEVVAATPTSLLISWPTHYKVARYYRITYGETGGNSPVQEFTVPKHTYTATISGLKPGVDYTITVYAVTTTKGLRHYGPISINYRTHHHHHH
notes: Optimized derivative of 218C04
For B2, the binding result in assay [1] was “binds”.

B3: 354D10 (designed binder)
chain: VSDVPRDLEVVAATPTSLLISWPDHVKVQRYYRITYGETGGNSPVQEFTVPQHSRTATISGLKPGVDYTITVYAVTYTGYGTERNYQPISINYRTHHHHHH
As to B3, the binding entry in assay [1] is given as “binds”.

B4: 218C04 (designed binder)
chain: VSDVPRDLEVVAATPTSLLISWSPYLRVARYYRITYGETGGNSPVQEFTVPSSARTATISGLKPGVDYTITVYAVTPSNIIGRHYGPISINYRTHHHHHH
notes: also called clone 218C04; pre-optimized clone
Consider B4, for which the binding result in assay [1] is “binds”.

B5: 354A09 (designed binder)
chain: VSDVPRDLEVVAATPTSLLISWSKRLQVSRYYRITYGETGGNSPVQEFTVPYNYKTATISGLKPGVDYTITVYAVTPSNIIGRHYGPISINYRTHHHHHH
For B5, the binding result in assay [1] is reported as “binds”.

B6: 338A05 (designed binder)
chain: VSDVPRDLEVVAATPTSLLISWSDSLKVSRYYRITYGETGGNSPVQEFTVPKQYHTATISGLKPGVDYTITVYAVTPSNIIGRHYGPISINYRTHHHHHH
notes: as for B2
For the molecule B6, the binding result in assay [1] is “binds”.

B7: 354C10 (designed binder)
chain: VSDVPRDLEVVAATPTSLLISWPTHYKVARYYRITYGETGGNSPVQEFTVPKHESTATISGLKPGVDYTITVYAVTLNVAYSREVRPISINYRTHHHHHH
For B7, the binding entry in assay [1] is reported as “binds”.

B8: 354C05 (designed binder)
chain: VSDVPRDLEVVAATPTSLLISWSSNLVVKRYYRITYGETGGNSPVQEFTVPKDPSTATISGLKPGVDYTITVYAVTDYEMKPRNYGPISINYRTHHHHHH
As for B8, in assay [1], the binding entry is on record as “binds”.

B9: 354B10 (designed binder)
chain: VSDVPRDLEVVAATPTSLLISWSENLRVQRYYRITYGETGGNSPVQEFTVPSSVHTATISGLKPGVDYTITVYAVTKMRDYRPISINYRTHHHHHH
With B9, the binding result in assay [1] was “binds”.

B10: 385A08 (designed binder)
chain: VSDVPRDLEVVAATPTSLLISWSARLKVARYYRITYGETGGNSPVQEFTVPKNVYTATISGLKPGVDYTITVYAVTRFRDYQPISINYRTHHHHHH
notes: FG loop optimized derivative of 338A06; also called clone 385A08; unmodified 385A08
For the molecule B10, the binding entry in assay [2] and in assay [3] was “binds” throughout.

B11: 385F08 (designed binder)
chain: VSDVPRDLEVVAATPTSLLISWSARLKVARYYRITYGETGGNSPVQEFTVPKNVYTATISGLKPGVDYTITVYAVTSLRDYAPISINYRTHHHHHH
notes: FG loop optimized derivative of 338A06
Consider B11, for which the binding result in assay [2] and in assay [3] was “binds” each time.

B12: 353H09 (designed binder)
chain: VSDVPRDLEVVAATPTSLLISWSDKLKVQRYYRITYGETGGNSPVQEFTVPKHDRTATISGLKPGVDYTITVYAVTKMRDYRPISINYRTHHHHHH
notes: as for B2
In the case of B12, in assay [1], the binding result was “binds”.

B13: 339A01 (designed binder)
chain: VSDVPRDLEVVAATPTSLLISWSTALKVQRYYRITYGETGGNSPVQEFTVPKHSHTATISGLKPGVDYTITVYAVTKMRDYRPISINYRTHHHHHH
notes: as for B2
Take B13: the binding result in assay [1] is “binds”.
